We go through seven targets from the supplement of paper PMC11732987, “Enantioselective OTUD7B fragment discovery through chemoproteomics screening and high-throughput optimisation” (Communications Chemistry, 2025).

The chains behind the UniProt entries cited, without tags or fusion partners. Where a name states a change or a piece, a line headed by the entry shows the natural chain unless it says otherwise.
UniProt Q6XZF7: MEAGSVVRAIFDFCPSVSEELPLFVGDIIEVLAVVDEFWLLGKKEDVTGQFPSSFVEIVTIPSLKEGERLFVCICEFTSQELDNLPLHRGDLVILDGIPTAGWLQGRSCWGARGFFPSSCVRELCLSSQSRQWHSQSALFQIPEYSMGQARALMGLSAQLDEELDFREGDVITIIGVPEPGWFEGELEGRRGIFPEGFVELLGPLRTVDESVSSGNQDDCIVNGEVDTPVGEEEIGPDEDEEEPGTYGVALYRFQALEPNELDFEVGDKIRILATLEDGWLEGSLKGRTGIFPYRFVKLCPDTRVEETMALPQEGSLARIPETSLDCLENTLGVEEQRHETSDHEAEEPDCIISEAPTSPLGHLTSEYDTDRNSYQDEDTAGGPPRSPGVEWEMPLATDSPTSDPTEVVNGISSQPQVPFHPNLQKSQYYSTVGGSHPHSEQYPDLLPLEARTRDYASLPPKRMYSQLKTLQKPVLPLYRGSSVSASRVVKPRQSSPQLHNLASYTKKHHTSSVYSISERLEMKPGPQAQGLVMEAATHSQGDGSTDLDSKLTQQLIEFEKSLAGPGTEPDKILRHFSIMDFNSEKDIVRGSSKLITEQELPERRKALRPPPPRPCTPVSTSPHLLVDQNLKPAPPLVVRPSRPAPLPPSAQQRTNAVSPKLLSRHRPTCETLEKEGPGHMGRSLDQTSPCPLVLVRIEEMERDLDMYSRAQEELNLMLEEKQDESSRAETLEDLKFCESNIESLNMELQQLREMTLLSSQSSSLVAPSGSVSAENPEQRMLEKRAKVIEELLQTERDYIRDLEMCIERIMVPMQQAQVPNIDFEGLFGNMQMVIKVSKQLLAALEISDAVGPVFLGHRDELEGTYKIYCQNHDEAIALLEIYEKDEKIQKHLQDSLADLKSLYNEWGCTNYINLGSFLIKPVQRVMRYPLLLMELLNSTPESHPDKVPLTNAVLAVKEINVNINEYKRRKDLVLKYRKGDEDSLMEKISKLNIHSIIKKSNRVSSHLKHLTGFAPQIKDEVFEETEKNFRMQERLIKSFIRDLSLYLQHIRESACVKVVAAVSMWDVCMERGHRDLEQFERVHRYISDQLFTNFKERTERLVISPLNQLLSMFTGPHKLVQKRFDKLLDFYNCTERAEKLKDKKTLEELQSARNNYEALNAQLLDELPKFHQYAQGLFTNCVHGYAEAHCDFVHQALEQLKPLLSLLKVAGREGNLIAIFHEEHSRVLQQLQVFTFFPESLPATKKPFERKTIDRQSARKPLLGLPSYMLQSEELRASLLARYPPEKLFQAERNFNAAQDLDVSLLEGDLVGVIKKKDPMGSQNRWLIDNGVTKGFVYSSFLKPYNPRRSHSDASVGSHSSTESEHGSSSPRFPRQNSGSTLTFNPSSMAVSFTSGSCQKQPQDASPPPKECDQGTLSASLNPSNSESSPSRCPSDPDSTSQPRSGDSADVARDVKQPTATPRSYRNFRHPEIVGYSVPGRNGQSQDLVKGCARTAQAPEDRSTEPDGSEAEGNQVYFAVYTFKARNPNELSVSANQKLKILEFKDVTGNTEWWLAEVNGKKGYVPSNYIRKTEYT
UniProt Q9UPY3: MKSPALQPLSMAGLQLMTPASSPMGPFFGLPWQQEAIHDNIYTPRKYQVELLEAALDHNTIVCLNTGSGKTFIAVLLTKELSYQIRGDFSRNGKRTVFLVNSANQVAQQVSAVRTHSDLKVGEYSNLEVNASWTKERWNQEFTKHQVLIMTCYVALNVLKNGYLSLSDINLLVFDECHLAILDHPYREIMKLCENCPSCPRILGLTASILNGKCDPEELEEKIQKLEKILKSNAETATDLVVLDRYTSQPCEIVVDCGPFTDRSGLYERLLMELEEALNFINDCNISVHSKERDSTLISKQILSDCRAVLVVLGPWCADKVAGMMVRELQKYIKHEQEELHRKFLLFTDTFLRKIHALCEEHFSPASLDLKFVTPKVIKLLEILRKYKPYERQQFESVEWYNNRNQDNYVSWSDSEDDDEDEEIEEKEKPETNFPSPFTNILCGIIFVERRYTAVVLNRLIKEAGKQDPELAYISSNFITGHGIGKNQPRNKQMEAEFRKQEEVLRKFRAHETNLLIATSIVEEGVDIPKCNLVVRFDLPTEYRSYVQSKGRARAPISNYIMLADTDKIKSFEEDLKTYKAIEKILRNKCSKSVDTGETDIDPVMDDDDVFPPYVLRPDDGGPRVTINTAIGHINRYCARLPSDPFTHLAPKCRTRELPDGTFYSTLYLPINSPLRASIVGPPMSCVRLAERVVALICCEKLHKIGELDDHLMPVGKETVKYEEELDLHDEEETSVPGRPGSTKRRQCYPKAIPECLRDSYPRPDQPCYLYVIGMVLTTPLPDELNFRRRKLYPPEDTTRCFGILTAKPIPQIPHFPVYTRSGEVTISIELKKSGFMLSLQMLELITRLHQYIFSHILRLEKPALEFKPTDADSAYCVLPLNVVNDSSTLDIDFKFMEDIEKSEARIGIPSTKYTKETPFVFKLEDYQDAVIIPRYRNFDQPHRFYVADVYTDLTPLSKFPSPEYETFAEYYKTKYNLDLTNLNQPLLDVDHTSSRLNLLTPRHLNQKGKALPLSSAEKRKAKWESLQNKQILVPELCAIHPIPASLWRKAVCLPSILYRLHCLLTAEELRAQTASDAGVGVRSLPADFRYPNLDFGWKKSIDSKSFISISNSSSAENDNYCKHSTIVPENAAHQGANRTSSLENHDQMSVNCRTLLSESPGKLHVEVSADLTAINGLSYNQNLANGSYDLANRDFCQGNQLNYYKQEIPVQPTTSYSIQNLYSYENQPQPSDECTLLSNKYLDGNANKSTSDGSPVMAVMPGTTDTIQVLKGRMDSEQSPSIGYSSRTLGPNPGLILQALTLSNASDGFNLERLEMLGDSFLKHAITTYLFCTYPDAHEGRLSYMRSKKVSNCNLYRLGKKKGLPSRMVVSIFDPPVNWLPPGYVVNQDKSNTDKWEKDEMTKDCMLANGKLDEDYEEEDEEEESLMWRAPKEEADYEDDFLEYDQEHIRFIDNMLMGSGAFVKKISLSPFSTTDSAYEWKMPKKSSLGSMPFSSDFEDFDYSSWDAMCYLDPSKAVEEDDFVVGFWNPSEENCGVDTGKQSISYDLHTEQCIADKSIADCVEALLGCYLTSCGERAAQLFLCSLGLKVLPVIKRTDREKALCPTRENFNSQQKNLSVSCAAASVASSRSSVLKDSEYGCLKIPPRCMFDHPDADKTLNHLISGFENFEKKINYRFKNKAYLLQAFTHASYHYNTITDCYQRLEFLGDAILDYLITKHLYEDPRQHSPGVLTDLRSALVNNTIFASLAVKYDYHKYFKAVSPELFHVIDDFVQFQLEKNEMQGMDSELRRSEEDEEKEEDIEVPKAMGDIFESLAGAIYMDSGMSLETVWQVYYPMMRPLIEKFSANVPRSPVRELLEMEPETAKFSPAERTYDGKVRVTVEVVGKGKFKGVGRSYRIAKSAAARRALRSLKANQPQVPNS
UniProt Q6P158: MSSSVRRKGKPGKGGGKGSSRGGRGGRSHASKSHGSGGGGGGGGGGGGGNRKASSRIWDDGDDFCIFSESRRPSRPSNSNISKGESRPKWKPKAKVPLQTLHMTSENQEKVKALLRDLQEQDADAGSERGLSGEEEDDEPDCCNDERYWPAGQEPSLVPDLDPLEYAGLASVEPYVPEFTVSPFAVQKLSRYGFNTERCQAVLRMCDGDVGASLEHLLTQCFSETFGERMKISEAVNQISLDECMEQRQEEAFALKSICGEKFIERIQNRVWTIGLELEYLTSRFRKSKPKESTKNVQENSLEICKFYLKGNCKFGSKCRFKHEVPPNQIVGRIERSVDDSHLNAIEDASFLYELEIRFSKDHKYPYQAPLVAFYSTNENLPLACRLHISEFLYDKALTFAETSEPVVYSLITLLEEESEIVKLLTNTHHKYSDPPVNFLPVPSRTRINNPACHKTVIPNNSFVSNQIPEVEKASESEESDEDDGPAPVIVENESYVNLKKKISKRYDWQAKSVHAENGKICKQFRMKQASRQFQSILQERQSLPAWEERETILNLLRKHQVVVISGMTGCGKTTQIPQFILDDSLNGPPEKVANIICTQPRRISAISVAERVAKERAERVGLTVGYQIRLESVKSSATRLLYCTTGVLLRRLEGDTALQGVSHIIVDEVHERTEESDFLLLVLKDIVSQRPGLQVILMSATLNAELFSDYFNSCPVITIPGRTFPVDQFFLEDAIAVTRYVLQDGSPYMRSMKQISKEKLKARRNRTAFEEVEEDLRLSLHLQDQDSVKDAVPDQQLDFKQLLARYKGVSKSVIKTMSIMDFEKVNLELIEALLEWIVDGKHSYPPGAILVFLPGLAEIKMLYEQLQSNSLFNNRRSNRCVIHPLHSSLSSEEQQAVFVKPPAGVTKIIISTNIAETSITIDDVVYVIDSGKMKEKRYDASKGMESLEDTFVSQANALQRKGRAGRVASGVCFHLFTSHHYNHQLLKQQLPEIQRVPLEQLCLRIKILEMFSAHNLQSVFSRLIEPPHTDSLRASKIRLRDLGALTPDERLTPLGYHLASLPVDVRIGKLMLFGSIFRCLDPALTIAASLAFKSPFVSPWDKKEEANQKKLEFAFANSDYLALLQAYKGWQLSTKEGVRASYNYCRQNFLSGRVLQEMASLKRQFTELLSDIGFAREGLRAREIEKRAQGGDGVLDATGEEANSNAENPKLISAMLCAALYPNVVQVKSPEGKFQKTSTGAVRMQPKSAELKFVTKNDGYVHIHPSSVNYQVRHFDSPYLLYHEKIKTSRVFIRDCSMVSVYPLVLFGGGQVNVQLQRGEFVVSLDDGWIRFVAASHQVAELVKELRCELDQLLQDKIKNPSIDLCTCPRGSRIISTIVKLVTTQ
UniProt Q8IX18: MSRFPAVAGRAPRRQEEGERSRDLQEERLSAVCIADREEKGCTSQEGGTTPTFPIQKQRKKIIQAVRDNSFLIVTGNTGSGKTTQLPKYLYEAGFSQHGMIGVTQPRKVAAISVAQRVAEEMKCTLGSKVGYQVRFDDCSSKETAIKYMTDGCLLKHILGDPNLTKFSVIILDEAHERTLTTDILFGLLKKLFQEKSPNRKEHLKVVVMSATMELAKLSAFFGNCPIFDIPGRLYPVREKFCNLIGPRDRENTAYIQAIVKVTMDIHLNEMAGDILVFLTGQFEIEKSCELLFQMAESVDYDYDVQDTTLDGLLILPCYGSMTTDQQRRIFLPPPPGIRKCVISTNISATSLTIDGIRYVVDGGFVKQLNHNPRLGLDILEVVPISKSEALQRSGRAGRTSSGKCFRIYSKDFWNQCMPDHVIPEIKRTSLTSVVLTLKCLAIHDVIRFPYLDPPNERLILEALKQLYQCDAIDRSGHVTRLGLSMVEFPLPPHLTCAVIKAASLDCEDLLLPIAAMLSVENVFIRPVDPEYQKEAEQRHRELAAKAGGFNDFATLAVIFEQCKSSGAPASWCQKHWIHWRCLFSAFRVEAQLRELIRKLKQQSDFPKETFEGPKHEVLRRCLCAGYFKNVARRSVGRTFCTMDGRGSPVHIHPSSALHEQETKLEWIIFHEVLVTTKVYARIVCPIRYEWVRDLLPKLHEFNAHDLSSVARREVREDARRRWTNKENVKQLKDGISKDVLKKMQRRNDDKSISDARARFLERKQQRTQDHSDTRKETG

Compound in assay [1]: ClCC(=O)N[C@@H]1CCCc2ccccc12
In words: log2 mean competition ratio of IA-DTB cysteine labelling (DMSO/compound) (log2 ratio); higher = stronger cysteine engagement by compound. As to conditions: treatment time: 4 h, cell line lysate: HEK293T. The method, then:
(§1)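 IA-DTB competitive cysteine chemoproteomics in HEK293T RIPA lysate. Lysates were treated with compound 29 or 30 at 50 or 200 µM for 4 h, then IA-DTB (500 µM, 1 h), trypsin-digested, NeutrAvidin-enriched and analysed by diaPASEF. Competition ratio = intensity DMSO / intensity compound (n=4 treated, n=64 DMSO); binding: mean log2 CR ≥ 1 and p ≤ 0.05 plus QC filters. Target is the cysteine site.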

Compound in assay [2]: ClCC(=O)N[C@H]1CCCc2ccccc12
Described as above. As to conditions: treatment time: 4 h, cell line lysate: HEK293T. The method, then: as §1

The other results are listed elsewhere or left out. The data scatter; read single values as rough.

For DHX9 C415 (UniProt Q08211), the “log2 mean competition ratio” value in assay [1] (50 µM) is -0.246; in assay [1] (200 µM), 0.137; in assay [2] (50 µM), -0.119; in assay [2] (200 µM), 0.0164.

Regarding DNMBP C125 (UniProt Q6XZF7), the “log2 mean competition ratio” value in assay [1] (50 µM) was 0.108; in assay [1] (200 µM) it was -0.196; in assay [2] (50 µM) it was 0.267; in assay [2] (200 µM), -0.142.

On to DICER1 C1621 (UniProt Q9UPY3), for which the “log2 mean competition ratio” value worked out at 0.133 in assay [1] (50 µM), 0.0788 in assay [1] (200 µM), 0.218 in assay [2] (50 µM) and 0.11 in assay [2] (200 µM).

As to DHX57 C598 (UniProt Q6P158), the “log2 mean competition ratio” value in assay [1] (50 µM) is -0.262; in assay [1] (200 µM), -0.111; in assay [2] (50 µM) it was -0.245; in assay [2] (200 µM), 0.0255.

For the target DHX40 C242 (UniProt Q8IX18), the “log2 mean competition ratio” value in assay [1] (50 µM) was 0.0491; in assay [1] (200 µM) it was 0.0742; in assay [2] (50 µM), -0.318; in assay [2] (200 µM), 0.112.

DOCK11 C492: the “log2 mean competition ratio” value in assay [1] (50 µM) came out at 0.369; in assay [1] (200 µM) it was 0.25; in assay [2] (50 µM), 0.168; in assay [2] (200 µM) it was 0.0137.

For DMXL1 C1539 (UniProt Q9Y485), the “log2 mean competition ratio” value in assay [1] (50 µM) was -0.128; in assay [1] (200 µM) it was -0.162; in assay [2] (50 µM), -0.154; in assay [2] (200 µM) it was -0.176.
